For 26 compounds, RFP signal change results are on record in PubChem BioAssay AID651647 (Sanford-Burnham Center for Chemical Genomics, 2012).

Some of the results follow. Some tests of the compounds listed are not included; inactive here does not mean inactive elsewhere.

The test in a line: MT1-MMP activation inhibitors, cellular reporter – HT1080 RFP-PRO-GFP cells, GFP/RFP fluorescence, primary screen (AID 651647). As to conditions: GFP/RFP ratio fluorescence, overnight, RFP expression control read, at 20 µM. The essentials: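 Assay system: RFP-PRO-GFP reporter HT1080 cells; read-out basis: GFP/RFP fluorescence ratio; benchmarks: DMSO wells and RFP-L50D-GFP cells; doses: 20 µM single dose, 1% DMSO; schedule: overnight cell settling, then overnight compound exposure, 37 °C, 5% CO2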
For the compound `COc1ccc(C(=O)NCC2(N(C)C)CCCCC2)cc1`, the RFP signal change was found to be 1.12%.
As for `CCN1CCCC(OC(=O)C2(O)c3ccccc3C=Cc3ccccc32)C1` (stereo unspecified), the RFP signal change was -0.349%.
For `Cc1cc(C(=O)NCC2(N3CCCCC3)CCCCC2)ccc1[N+](=O)[O-]`, the RFP signal change worked out at 1.09%.
The figure for `O=C(NCC1(N2CCCCC2)CCCCC1)c1cccc(Br)c1` is -0.637%; for `C=CCN1CCN(CCOC(=O)C(O)(c2ccccc2)c2ccccc2)CC1` it is 6.23%.
Consider `O=C(NCC1(N2CCCCC2)CCCCC1)c1cc(F)c(F)cc1Cl`, for which the RFP signal change was 2.86%.
The figure for `Cc1ccccc1C(=O)NCC1(N2CCCCC2)CCCCC1` is -0.253%; for `CN(C)c1ccc(C(=O)NCC2(N(C)C)CCCCC2)cc1` it is 1.59%; for `CN(C)C1CCCC1OC(=O)C(O)(c1ccccc1)c1ccccc1` (stereo unspecified) it is 1.06%.
As for `Cc1ccc(C(=O)NCC2(N3CCCCC3)CCCCC2)cc1`, the RFP signal change is 5.07%.
Consider `CCN(CC)CC(C)C(C)OC(=O)C(O)(c1ccccc1)c1ccccc1` (stereo unspecified), for which the RFP signal change was -0.0943%.
The figure for `COc1cc(SC)ccc1C(=O)NCC1(N(C)C)CCCCC1` is -0.0126%.
Consider `CC(C)N1C(=O)CC2(CCN(CCOC(=O)C(O)(c3ccccc3)c3ccccc3)CC2)C1=O`, for which the RFP signal change worked out at 0.705%.
Take `CN1[C@@H]2CC[C@H]1CC(OC(=O)C(O)(c1ccccc1)c1ccccc1)C2` (stereo partly specified): the RFP signal change was -6.86%.
Take `O=C(NCC1(N2CCCCC2)CCCCC1)c1cc([N+](=O)[O-])ccc1Cl`: the RFP signal change was -1.63%.
The figure for `CC(C)Oc1ccc(C(=O)NCC2(N(C)C)CCCCC2)cc1` is -3.07%.
With `O=C(OCCN1CCCC1)C(O)(c1ccccc1)c1ccccc1`, the RFP signal change is 0.362%.
`CN(C)c1cccc(C(=O)NCC2(N(C)C)CCCCC2)c1`: the RFP signal change worked out at 8.48%.
As for `C=C(C)C#CC(O)(C(=O)OC1CCN(C)CC1)c1ccccc1` (stereo unspecified), the RFP signal change is 4.78%.
The figure for `COc1ccc(Br)c(C(=O)NCC2(N3CCCCC3)CCCCC2)c1` is 1.09%.
With `O=C(OC1CN2CCC1CC2)C(CO)(c1ccccc1)c1ccccc1` (stereo unspecified), the RFP signal change was -11.3%.
`O=C(NCC1(N2CCCCC2)CCCCC1)c1cccc(Cl)c1`: the RFP signal change stood at 3.56%.
The figure for `COc1cccc(C(=O)NCC2(N3CCCCC3)CCCCC2)c1` is 1.82%.
Consider `COc1ccc(Cl)cc1C(=O)NCC1(N(C)C)CCCCC1`, for which the RFP signal change is -2.03%.
On to `COc1cc(C(=O)NCC2(N(C)C)CCCCC2)c([N+](=O)[O-])cc1OC`, for which the RFP signal change was 3.54%.
The figure for `CN(C)C1(CNC(=O)c2ccc(Br)cc2)CCCCC1` is 3.45%.
